The supplement of paper PMC10849652
Some of the results follow.

The chains behind the UniProt entries cited, without tags or fusion partners. Where a name states a change or a piece, a line headed by the entry shows the natural chain unless it says otherwise.
UniProt Q8N5G0: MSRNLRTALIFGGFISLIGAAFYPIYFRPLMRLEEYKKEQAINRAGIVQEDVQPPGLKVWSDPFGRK
UniProt Q3SY56: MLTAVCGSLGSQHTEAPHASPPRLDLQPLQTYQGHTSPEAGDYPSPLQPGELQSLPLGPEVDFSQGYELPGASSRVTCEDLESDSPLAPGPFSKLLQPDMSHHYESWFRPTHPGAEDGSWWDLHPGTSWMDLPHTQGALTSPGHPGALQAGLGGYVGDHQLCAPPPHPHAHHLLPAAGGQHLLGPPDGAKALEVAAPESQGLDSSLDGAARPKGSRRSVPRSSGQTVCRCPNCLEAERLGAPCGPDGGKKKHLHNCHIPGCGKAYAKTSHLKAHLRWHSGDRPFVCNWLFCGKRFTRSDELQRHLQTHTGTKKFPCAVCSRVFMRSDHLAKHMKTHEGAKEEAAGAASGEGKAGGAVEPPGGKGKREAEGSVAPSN
UniProt Q0VAQ4: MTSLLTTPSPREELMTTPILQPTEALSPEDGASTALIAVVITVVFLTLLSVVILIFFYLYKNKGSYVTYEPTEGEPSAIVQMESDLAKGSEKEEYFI
UniProt Q8WVI0: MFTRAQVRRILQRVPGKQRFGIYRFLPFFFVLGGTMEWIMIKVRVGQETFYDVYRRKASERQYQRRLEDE
UniProt Q9NZC9: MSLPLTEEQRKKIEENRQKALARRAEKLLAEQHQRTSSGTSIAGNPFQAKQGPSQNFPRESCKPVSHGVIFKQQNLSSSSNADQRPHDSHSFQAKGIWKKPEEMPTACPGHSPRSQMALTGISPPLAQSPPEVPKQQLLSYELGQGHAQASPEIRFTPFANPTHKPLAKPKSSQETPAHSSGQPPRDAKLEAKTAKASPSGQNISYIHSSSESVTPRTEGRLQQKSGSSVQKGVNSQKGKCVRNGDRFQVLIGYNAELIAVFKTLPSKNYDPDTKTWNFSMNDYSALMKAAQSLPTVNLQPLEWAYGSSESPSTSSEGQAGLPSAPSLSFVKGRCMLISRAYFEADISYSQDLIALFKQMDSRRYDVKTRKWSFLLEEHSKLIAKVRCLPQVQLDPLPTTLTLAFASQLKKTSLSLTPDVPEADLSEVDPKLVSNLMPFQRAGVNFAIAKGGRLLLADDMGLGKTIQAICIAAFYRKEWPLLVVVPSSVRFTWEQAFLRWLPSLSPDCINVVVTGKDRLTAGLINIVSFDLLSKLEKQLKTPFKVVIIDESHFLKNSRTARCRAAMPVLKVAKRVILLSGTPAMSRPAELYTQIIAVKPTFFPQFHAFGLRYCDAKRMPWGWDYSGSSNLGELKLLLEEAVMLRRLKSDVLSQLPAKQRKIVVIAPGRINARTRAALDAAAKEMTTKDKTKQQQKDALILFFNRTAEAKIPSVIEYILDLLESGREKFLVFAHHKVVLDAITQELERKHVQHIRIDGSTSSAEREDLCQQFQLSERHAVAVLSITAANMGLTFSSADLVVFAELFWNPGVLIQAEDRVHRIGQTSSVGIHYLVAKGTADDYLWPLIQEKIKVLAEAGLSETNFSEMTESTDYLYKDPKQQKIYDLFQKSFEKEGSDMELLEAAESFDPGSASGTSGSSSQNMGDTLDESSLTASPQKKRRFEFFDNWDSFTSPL
UniProt O75971: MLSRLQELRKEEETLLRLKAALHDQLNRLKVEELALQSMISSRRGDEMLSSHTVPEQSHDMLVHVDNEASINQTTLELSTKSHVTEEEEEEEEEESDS
UniProt Q5VWJ9: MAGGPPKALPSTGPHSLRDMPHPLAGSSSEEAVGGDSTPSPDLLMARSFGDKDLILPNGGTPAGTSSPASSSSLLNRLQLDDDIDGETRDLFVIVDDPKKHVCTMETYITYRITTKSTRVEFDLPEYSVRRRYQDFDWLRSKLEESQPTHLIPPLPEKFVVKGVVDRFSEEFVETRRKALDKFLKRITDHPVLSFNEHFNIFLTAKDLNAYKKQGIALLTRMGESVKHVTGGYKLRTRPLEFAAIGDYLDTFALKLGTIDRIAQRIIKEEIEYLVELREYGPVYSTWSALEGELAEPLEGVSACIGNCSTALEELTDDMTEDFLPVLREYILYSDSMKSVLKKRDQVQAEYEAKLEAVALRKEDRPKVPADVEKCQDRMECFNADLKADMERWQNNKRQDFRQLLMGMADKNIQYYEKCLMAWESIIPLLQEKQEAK
UniProt Q9NRH2: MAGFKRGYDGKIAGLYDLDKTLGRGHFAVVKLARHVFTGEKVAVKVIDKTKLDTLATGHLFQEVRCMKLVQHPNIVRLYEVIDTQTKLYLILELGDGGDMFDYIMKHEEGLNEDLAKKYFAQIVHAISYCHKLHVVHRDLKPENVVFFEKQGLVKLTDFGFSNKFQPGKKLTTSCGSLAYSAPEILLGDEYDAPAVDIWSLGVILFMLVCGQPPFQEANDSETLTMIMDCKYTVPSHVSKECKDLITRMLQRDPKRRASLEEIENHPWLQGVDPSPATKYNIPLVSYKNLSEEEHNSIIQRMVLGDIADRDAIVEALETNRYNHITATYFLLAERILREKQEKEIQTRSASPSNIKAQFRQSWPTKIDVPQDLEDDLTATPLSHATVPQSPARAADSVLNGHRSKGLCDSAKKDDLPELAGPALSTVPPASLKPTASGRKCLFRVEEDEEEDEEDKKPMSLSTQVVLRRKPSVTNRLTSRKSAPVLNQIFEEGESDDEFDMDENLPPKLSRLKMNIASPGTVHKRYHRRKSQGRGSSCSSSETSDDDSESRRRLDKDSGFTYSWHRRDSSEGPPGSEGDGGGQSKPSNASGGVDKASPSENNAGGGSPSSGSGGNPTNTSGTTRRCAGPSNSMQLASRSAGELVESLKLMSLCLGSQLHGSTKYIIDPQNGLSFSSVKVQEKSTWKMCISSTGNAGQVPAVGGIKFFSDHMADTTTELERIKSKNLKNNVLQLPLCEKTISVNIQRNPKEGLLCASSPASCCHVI
UniProt Q9BT81: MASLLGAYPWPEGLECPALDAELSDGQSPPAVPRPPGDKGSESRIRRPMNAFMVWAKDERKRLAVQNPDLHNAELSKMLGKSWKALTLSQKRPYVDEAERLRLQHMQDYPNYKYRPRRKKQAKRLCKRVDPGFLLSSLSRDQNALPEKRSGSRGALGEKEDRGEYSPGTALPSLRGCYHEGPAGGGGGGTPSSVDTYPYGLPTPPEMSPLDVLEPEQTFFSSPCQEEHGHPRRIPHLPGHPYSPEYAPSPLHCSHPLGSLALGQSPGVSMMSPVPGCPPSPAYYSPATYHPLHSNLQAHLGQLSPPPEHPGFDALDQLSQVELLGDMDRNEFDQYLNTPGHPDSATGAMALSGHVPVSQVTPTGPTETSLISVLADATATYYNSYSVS
UniProt O60504: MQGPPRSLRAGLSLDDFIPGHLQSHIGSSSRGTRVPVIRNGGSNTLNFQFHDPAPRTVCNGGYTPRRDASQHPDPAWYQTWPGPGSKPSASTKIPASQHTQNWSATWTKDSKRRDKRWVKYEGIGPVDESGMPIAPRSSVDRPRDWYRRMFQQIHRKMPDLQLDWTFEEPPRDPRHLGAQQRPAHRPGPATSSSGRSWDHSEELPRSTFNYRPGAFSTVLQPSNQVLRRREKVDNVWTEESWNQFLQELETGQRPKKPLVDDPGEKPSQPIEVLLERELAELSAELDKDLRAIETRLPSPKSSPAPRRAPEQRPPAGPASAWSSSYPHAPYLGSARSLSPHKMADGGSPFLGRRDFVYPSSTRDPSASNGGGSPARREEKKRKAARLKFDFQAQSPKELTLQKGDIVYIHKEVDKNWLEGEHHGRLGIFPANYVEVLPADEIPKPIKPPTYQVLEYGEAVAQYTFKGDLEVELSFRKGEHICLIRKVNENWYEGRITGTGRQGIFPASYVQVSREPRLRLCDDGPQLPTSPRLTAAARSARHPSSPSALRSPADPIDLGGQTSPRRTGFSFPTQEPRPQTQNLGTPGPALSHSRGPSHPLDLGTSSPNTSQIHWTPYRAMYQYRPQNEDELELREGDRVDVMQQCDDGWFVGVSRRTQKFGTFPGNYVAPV
UniProt P08294: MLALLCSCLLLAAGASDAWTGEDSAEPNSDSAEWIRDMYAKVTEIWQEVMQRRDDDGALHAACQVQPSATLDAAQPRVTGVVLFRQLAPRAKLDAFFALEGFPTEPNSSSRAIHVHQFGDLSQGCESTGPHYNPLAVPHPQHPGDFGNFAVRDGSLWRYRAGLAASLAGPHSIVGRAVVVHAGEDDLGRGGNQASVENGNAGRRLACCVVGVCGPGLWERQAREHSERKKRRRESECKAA
UniProt Q96E16: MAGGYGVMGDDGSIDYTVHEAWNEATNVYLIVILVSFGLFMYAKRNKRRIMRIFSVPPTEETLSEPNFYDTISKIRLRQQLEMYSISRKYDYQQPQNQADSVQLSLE
UniProt Q02446, whole entry, looked up: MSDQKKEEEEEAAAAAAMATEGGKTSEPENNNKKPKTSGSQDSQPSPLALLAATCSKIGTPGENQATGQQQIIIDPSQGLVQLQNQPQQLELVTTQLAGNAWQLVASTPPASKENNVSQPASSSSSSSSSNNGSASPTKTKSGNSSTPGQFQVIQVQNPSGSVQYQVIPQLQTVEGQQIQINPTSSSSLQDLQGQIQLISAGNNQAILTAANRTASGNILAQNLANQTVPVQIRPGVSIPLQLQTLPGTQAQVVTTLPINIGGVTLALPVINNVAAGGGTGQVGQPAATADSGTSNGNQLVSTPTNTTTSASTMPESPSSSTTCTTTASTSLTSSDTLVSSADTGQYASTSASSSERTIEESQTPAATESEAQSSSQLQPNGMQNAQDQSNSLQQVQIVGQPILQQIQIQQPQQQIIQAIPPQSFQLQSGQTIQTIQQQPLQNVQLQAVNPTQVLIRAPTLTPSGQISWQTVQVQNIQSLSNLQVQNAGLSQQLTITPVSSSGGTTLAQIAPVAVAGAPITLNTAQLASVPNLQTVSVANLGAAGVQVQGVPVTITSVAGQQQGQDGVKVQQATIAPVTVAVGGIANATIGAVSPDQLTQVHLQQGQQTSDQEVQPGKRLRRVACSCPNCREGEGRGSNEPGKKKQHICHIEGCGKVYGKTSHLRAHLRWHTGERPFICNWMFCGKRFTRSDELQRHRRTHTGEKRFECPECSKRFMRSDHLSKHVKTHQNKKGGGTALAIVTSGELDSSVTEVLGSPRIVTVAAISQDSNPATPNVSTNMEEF
UniProt Q92581: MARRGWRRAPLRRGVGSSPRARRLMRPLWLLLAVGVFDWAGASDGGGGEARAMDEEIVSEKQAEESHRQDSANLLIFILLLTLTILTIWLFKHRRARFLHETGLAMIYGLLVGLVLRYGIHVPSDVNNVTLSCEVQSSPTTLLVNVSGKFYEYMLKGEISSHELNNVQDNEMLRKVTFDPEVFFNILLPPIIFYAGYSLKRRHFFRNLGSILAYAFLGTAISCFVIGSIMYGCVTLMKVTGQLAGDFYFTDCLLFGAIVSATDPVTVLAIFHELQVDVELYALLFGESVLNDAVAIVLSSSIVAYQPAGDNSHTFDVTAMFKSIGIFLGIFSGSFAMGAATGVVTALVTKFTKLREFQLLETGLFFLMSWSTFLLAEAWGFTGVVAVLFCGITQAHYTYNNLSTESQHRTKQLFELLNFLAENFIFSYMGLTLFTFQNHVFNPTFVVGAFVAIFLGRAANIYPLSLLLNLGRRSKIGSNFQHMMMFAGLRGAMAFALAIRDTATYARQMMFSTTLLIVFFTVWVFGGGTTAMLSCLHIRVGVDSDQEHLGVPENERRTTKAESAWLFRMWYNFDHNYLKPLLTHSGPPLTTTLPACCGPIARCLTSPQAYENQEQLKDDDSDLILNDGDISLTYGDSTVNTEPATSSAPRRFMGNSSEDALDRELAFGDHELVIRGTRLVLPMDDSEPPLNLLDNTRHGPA
UniProt P35712: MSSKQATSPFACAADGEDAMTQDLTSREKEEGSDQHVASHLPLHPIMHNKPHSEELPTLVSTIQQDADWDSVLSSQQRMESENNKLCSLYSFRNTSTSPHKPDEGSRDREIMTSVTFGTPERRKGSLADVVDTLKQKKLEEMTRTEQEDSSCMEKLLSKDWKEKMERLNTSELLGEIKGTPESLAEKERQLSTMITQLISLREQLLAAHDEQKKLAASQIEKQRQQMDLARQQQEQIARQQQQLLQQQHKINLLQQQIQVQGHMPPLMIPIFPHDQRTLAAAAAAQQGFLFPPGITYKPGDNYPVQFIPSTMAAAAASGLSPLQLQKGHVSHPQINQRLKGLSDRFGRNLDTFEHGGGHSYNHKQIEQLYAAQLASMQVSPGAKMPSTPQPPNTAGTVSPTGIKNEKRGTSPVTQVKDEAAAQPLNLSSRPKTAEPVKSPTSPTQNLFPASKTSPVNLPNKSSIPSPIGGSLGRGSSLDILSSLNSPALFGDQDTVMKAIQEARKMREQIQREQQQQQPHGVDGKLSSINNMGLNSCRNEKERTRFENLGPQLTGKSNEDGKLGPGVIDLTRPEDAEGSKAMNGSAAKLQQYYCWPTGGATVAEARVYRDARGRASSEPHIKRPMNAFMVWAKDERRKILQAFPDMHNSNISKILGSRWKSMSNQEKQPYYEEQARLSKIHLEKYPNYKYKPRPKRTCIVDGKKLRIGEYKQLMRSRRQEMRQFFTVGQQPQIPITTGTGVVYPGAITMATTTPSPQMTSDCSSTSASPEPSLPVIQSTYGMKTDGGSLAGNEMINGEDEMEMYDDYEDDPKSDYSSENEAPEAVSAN

Legend:
Assay in all cases: log2 fold change, soluble protein after heating vs DMSO (PISA); higher = thermal stabilisation; K562 cells, 10 uM, 30 min; active = over 0.2 and 3.5 SD of the protein, either way, in both replicates (recomputed)
[1] = compound: CS(=O)(=O)c1ccc(-c2cnc(N)c(C(=O)Nc3ccccc3)n2)cc1
Outline: (§1)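 Aliquots of K562 cells (2×10^6 cells/mL) treated with 10 μM compound for 30 min were heated for 3 min over 48°C-58°C. After pooling and extraction in PBS with 0.5% NP-40 at 4°C, soluble protein from a 21,000xg, 90 min spin was quantified by TMTpro 16plex LC-MS/MS with channel sums equalised. Thermal stability is expressed against control samples, from duplicates, as a log2 fold change.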

[2] = compound: C[C@@H]1COCCN1C2=NC(=NC(=C2)C3(CC3)S(=O)(=O)C)C4=C5C=CNC5=CC=C4
Outline: as §1

duvelisib = compound: C[C@H](Nc1ncnc2nc[nH]c12)c1cc2cccc(Cl)c2c(=O)n1-c1ccccc1 [duvelisib]
Outline: as §1

[3] = compound: Cc1cc(SCc2sc(-c3ccc(C(F)(F)F)cc3)nc2C)ccc1OCC(=O)O
Outline: as §1

ispinesib = compound: Cc1ccc(C(=O)N(CCCN)[C@@H](c2nc3cc(Cl)ccc3c(=O)n2Cc2ccccc2)C(C)C)cc1 [ispinesib]
Outline: as §1

[4] = compound: C[C@H](C1=CC=C(C=C1)C(=O)NC2=C3C=CNC3=NC=C2)N
Outline: as §1

gandotinib = compound: Cc1cc(Nc2cc(CN3CCOCC3)c3nc(C)c(Cc4ccc(Cl)cc4F)n3n2)n[nH]1 [gandotinib]
Outline: as §1

tozasertib = compound: Cc1cc(Nc2cc(N3CCN(C)CC3)nc(Sc3ccc(NC(=O)C4CC4)cc3)n2)n[nH]1 [tozasertib]
Outline: as §1

crizotinib = compound: C[C@@H](Oc1cc(-c2cnn(C3CCNCC3)c2)cnc1N)c1c(Cl)ccc(F)c1Cl [crizotinib]
Outline: as §1

doramapimod = compound: Cc1ccc(-n2nc(C(C)(C)C)cc2NC(=O)Nc2ccc(OCCN3CCOCC3)c3ccccc23)cc1 [doramapimod]
Outline: as §1

Measured: log2 fold change

SNX13 (UniProt Q9Y5W8)
inactive: [1] 0.032 | [2] 0.152 | duvelisib 0.07 | [3] -0.052 | ispinesib -0.07

SMIM20 isoform 2 (UniProt Q8N5G0)
inactive: [1] -0.014 | [2] 0.126 | [4] 0.019 | gandotinib 0.068 | [3] -0.068 | ispinesib 0.089

SLC9A8 isoform 2 (UniProt Q9Y2E8)
inactive: [1] 0.028 | [2] 0.02 | [4] -0.102 | duvelisib 0.032 | tozasertib -0.119 | [3] -0.029

SMARCA2 (UniProt P51531)
inactive: gandotinib -0.225 | ispinesib -0.027

SMARCD2 (UniProt Q92925)
inactive: crizotinib 0.02 | [4] 0.157 | gandotinib -0.088 | tozasertib 0.29 | doramapimod 0.048

SP6 (UniProt Q3SY56)
inactive: [1] 0.033 | [2] -0.097 | [4] -0.024 | duvelisib 0.015 | tozasertib 0.007 | [3] -0.028 | ispinesib -0.139

SLC9B2 (UniProt Q86UD5)
inactive: [2] -0.016

SNAP47 (UniProt Q5SQN1)
inactive: [2] 0.1

SMAD3 (UniProt P84022)
inactive: [4] 0.172 | duvelisib 0.041 | gandotinib 0.07 | tozasertib 0.089 | [3] 0.088 | ispinesib -0.216

SLPI (UniProt P03973)
inactive: crizotinib 1.43 | doramapimod -0.203 | ispinesib -0.109

SMAGP (UniProt Q0VAQ4)
inactive: [1] -0.175 | [2] 0.17 | [4] -0.053 | duvelisib 0.04 | tozasertib 0.031 | [3] -0.112

SMIM13 (UniProt P0DJ93)
inactive: [1] 0.121 | ispinesib 0.063

SMPD4 isoform 2 (UniProt Q9NXE4)
inactive: crizotinib -0.21 | [4] -0.061 | gandotinib -0.263 | [3] 0.09 | doramapimod 0.027

SNTB2 (UniProt Q13425)
inactive: [1] 0.051 | [2] 0.046 | [4] -0.024 | duvelisib 0.131 | gandotinib -0.029 | tozasertib -0.061 | [3] 0.222 | ispinesib -0.324

SNIP1 (UniProt Q8TAD8)
inactive: gandotinib 0.04

SNX4 (UniProt O95219)
inactive: [4] 0.192 | gandotinib -0.058 | ispinesib -0.404

SMIM4 (UniProt Q8WVI0)
inactive: crizotinib 0.063 | [2] -0.093 | [4] -0.056 | duvelisib -0.031 | tozasertib 0.07 | [3] -0.143 | doramapimod -0.055

SMARCAL1 (UniProt Q9NZC9)
inactive: ispinesib 0.097

SNAPC5 (UniProt O75971)
inactive: crizotinib 0.075 | [2] 0.038 | duvelisib 0.073 | gandotinib 0.013 | tozasertib 0.053 | [3] 0.002 | doramapimod 0.008

SNX30 (UniProt Q5VWJ9)
inactive: [1] 0.169 | [2] -0.058

SMTN isoform 6 (UniProt P53814)
inactive: [1] -0.346 | [2] -0.014 | tozasertib 0.115

SMIM29 (UniProt Q86T20)
inactive: [1] 0.108 | [4] 0.128 | duvelisib 0.01 | [3] -0.219

SNRK (UniProt Q9NRH2)
inactive: [1] 0.008 | crizotinib -0.026 | [3] -0.067 | doramapimod 0.001

SNX27 (UniProt Q96L92)
inactive: crizotinib -0.091 | [2] 0 | [4] 0.434 | duvelisib -0.117 | gandotinib -0.182 | tozasertib 0.033 | [3] 0.293 | doramapimod 0.147 | ispinesib -0.199

SLC8B1 (UniProt Q6J4K2)
active: crizotinib -0.793 | ispinesib -0.477
inactive: [4] 0.129 | gandotinib -0.053 | [3] -0.073 | doramapimod 0.046

SOX7 isoform 2 (UniProt Q9BT81)
inactive: crizotinib -0.121 | [2] -0.116 | [4] 0.61 | duvelisib -0.271 | gandotinib 0.173 | tozasertib 0.087 | [3] 0.009 | doramapimod 0.285 | ispinesib -0.291

Pulled one by one from the entries so far, 2 records:
SMIM29 (UniProt Q86T20)
inactive: [1] 0.108 | [4] 0.128 | duvelisib 0.01 | [3] -0.219

SNX27 (UniProt Q96L92)
inactive: crizotinib -0.091 | [2] 0 | [4] 0.434 | duvelisib -0.117 | gandotinib -0.182 | tozasertib 0.033 | [3] 0.293 | doramapimod 0.147 | ispinesib -0.199

Following part:

SMYD3 (UniProt Q9H7B4)
inactive: [1] 0.229 | [2] -0.103 | [4] 0.223 | duvelisib -0.062 | gandotinib -0.011 | tozasertib 0.214 | [3] 0.22 | ispinesib -0.096

SMG6 (UniProt Q86US8)
inactive: [1] 0.003 | [2] 0.073 | [4] 0.615 | duvelisib 0.093 | tozasertib -0.027 | [3] 0.766

SNRPN isoform 2 (UniProt P63162)
inactive: crizotinib 0.174 | gandotinib 0.242 | doramapimod -0.023 | ispinesib 0.243

SORBS3 (UniProt O60504)
inactive: [2] 0.151 | gandotinib 0.072

SMIM11A (UniProt P58511)
inactive: crizotinib 0.267 | doramapimod 0.034

SOD3 (UniProt P08294)
inactive: [1] 0.109 | [4] 0.013 | duvelisib 0.067 | gandotinib -0.024 | tozasertib -0.033 | [3] -0.065

SNRPC (UniProt Q5TAL2)
inactive: [1] 0.065 | [2] -0.04 | [4] -0.061 | duvelisib 0.124 | gandotinib 0.265 | tozasertib -0.104 | [3] -0.143 | ispinesib -0.008

SNRPD2 (UniProt K7EJB5)
inactive: crizotinib 0 | [4] 0.191 | duvelisib 0.059 | gandotinib -0.09 | tozasertib -0.102 | [3] -0.117 | doramapimod 0.081 | ispinesib -0.348

SMPDL3A (UniProt Q92484)
inactive: [2] 0.159 | duvelisib -0.153 | tozasertib -0.071 | [3] 0.015

SMU1 isoform 2 (UniProt Q2TAY7)
inactive: crizotinib -0.129 | doramapimod 0.243

SMIM19 (UniProt Q96E16)
inactive: duvelisib 0.268 | tozasertib -0.211 | [3] -0.216 | ispinesib 0.094

SP4 (UniProt Q02446)
inactive: crizotinib 0.004 | gandotinib 0.242 | tozasertib -0.069 | doramapimod 0.025 | ispinesib 0.147

SLC9A6 isoform 3 (UniProt Q92581)
inactive: [4] -0.018 | [3] -0.137

SOX6 (UniProt P35712)
inactive: [4] -0.124 | ispinesib 0.039
